Source: PubChem BioAssay AID504834 (National Center for Advancing Translational Sciences (NCATS), 2011)
About 22,000 (6.9%) of roughly 320,000 compounds were called active. The inconclusive results got no clear call from the source; some entries with a clear call stand among them for comparison. Calls follow the shape of the dose curve; as a rule, active = well fitted inhibition curve with a large enough effect; inconclusive = small, poorly fitted or top-dose-only effect, or another doubt; inactive = no such curve, though single readings can be large or run the other way. Potencies of inconclusive entries are doubtful fits and often do not repeat.

Assay: Primary qHTS for delayed death inhibitors of the malarial parasite plastid, 96 hour incubation
Details: P. falciparum luciferase reporter growth; series mostly up to 28.7 µM; activity change, negative = inhibition: at the top concentration
Procedure, shortened: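 Plates of compound plus infected erythrocytes (2% hematocrit, 0.05% parasitemia final) incubate 96 hours, 37 C, 5% CO2. Detection reagent added; reduced luminescence from the parasites' luciferase reporter flags inhibition.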
% is scaled to controls: 0 for no effect and ±100 for the full control effect; potency is read from the fitted curve at half-maximal effect.

Compound	activity change, negative = inhibition	Potency
CCC(CO)NC(=O)c1ccccc1C(F)(F)F (stereo not given)	inactive: 32.6%	
CCN(CC)C(=O)c1ccc(/C=C/c2c[nH]c3ccccc23)[n+](C)c1		active: 0.37 µM
CCOc1ccc(N/C=C/C(=O)c2ccccc2)c([N+](=O)[O-])c1		inconclusive: 18.5 µM [inhibitor, single point]
O=C(Nc1cccc(F)c1)C1CCCN(S(=O)(=O)c2ccccc2)C1 (stereo not given)		inconclusive: 18.5 µM [inhibitor, single point]
O=C(O)c1cn(Cc2cccnc2)c(=O)c2ccccc12	inactive: 66%	
CCCSc1nc(N)nc(-c2cccs2)c1C#N	inactive: -4.76%	
COC(=O)c1sc2nc(SCC(=O)N(C)c3ccccc3)n(N)c(=O)c2c1C		inconclusive: 0.294 µM [inhibitor, full curve, poor fit]
Fc1cccc2sc(N3CCCC3)nc12	inactive: 64.3%	
Cc1ccc(S(=O)(=O)N2CCN(C(=O)C3CCCCC3)CC2)cc1		inconclusive: 13.1 µM [inhibitor, single point]
COc1ccc(NC(=O)COc2ccc(C)nc2[N+](=O)[O-])cc1S(N)(=O)=O		inconclusive: 11.7 µM [inhibitor, partial curve, poor fit]
COc1ccc(C2=Nn3c(nnc3-c3ccccn3)SC2)cc1OC		inconclusive: 10.4 µM [inhibitor, single point]
Cc1cccc(Oc2ccc(NC(=O)c3ccccc3C(=O)O)cc2)c1C	inactive: -2.29%	
CCCc1cc(=O)n2[nH]c(SCc3ccc(Cl)cc3)nc2n1	inactive: 23.1%	
CCOC(=O)c1ccc(NCc2nc3ccccc3[nH]2)cc1	inactive: 0%	
Cc1ccc(NC(=O)CSc2nnc(-c3n[nH]c4ccccc34)n2-c2ccccc2)c(C)c1		inconclusive: 7.38 µM [inhibitor, partial curve, poor fit]
CC1(C)CC(=O)C2=C(C1)OC1OC(=O)CC21C (stereo not given)	inactive: 46.3%	
COc1ccc(-c2[nH]ncc2-c2ccc(Cl)cc2)c(O)c1		active: 4.15 µM
Cc1ccc(C(=O)CNc2cccc([N+](=O)[O-])c2)cc1	inactive: 11.6%	
CCN(CC(=O)N1CCCC1)S(=O)(=O)c1ccc(Br)cc1	inactive: 0%	
Cc1cc(NS(=O)(=O)c2ccc(NC(=O)CCCOc3cccc(C)c3C)cc2)no1	inactive: -2.12%	
C/C(=C/c1ccccc1)C(=O)N1CCN(c2ccccc2F)CC1		inconclusive: 10.4 µM [inhibitor, single point]
O=C(C1CCN(c2nc3nonc3nc2N2CCCCC2)CC1)N1CCOCC1		inconclusive: 13.1 µM [inhibitor, partial curve]
Cc1nnc2ccc(-c3ccc(NS(=O)(=O)c4ccc(F)cc4F)cc3)nn12		inconclusive: 13.1 µM [inhibitor, single point]
Cc1ccc(NC(=O)CNC(=O)c2ccc(C)o2)cc1	inactive: 1.17%	
CCOC(=O)N1CCc2c(sc3nc4n(c(=O)c23)N=C(C)CS4)C1		inconclusive: 0.828 µM [inhibitor, full curve, poor fit]

Compound	activity change, negative = inhibition	Potency
Cc1ccc(NC(=O)c2scc3c2CCCC3)cc1		inconclusive: 18.5 µM [inhibitor, single point]
Cc1ccc(N2CC(C(=O)N3CCC(C(=O)Nc4nncs4)CC3)CC2=O)cc1 (stereo not given)		inconclusive: 5.22 µM [inhibitor, partial curve, poor fit]
Cc1oc2c(CN3CCCC3)c(O)ccc2c(=O)c1Oc1ccccc1Br	inactive: 5.65%	
COc1ccc(NC(=O)CSc2nnc(C3CC3)n2C)cc1S(=O)(=O)N1CCCCC1		inconclusive: 1.47 µM [inhibitor, full curve]
COc1cc(/C=N/n2c(C3CCCCC3)n[nH]c2=S)ccc1O	inactive: 15.2%	
CCCNC(=O)N1CCC2(CC1)OCCO2		inconclusive: 18.5 µM [inhibitor, single point]
COc1cc(/C=C(\C#N)c2ccccn2)ccc1OCc1ccccc1		inconclusive: 5.86 µM [inhibitor, partial curve, poor fit]
CC1=CC(=O)C(C(C)=Nc2ccccc2Cl)C(=O)O1 (stereo not given)	inactive: 31.9%	
CC(C)CCNC(=O)C(Cc1ccccc1)NS(=O)(=O)c1ccc2c(c1)c(=O)n(C)c(=O)n2C (stereo not given)		inconclusive: 1.04 µM [inhibitor, partial curve, poor fit]
Cc1ccc(NC(=O)C2CCN(C(=O)NC3CCCCC3)CC2)c(C)c1		inconclusive: 11.7 µM [inhibitor, partial curve]
COc1cccc(-n2c(Cc3cc(=O)[nH]c(=O)[nH]3)nnc2SCC(=O)NC2CCCC2)c1		inconclusive: 18.5 µM [inhibitor, single point]
CCCCONc1ncnc2nonc12	inactive: 70.5%	
CNC(=S)N(CCc1c(C)[nH]c2ccc(C)cc12)Cc1cc(OC)c(OC)c(OC)c1		active: 10.4 µM
Cc1nc2ccccc2nc1OCc1ccc([N+](=O)[O-])cc1	inactive: 19.1% [at 1.15 µM]	
CCCC(=O)Oc1cccc(C2NC(=O)c3ccccc3O2)c1 (stereo not given)		inconclusive: 14.7 µM [inhibitor, single point]
O=C(NCCS(=O)(=O)c1ccc(Br)cc1)c1ccc(Cl)cc1Cl	inactive: 21.6%	
Cc1nc(SCc2ccc(C(=O)O)cc2)nc2c1CCCC2	inactive: 43.1%	
COc1ccc(CCC(C)NCc2ccccc2OC)cc1 (stereo not given)		inconclusive: 18.5 µM [inhibitor, single point]
CC1CC(C)CN(CCCNC(=O)CCC(=O)N2CCOc3ccccc32)C1 (stereo not given)		inconclusive: 18.5 µM [inhibitor, partial curve, poor fit]
CC(CC(=O)N1CCN(c2ccccc2)CC1)S(=O)(=O)c1ccc2c(c1)NC(=O)CS2 (stereo not given)		inconclusive: 11.7 µM [inhibitor, single point]
CCc1c(C)nc2c(-c3ccccc3)c(-c3ccccc3)[nH]n2c1=O	inactive: 14%	
O=C(O)c1ccc(S(=O)(=O)NC2CCCc3ccccc32)cc1 (stereo not given)	inactive: 80.9%	
O=C(N/N=C/c1ccncc1)c1cccs1		inconclusive: 18.5 µM [inhibitor, single point]
COc1ccc(NC(=O)c2cc([N+](=O)[O-])ccc2O)cc1		inconclusive: 2.33 µM [inhibitor, partial curve, poor fit]
COCCCN1C(=O)C(=O)/C(=C(/O)c2ccc(S(=O)(=O)N3CCCCC3)cc2)C1c1ccc(OC)cc1 (stereo not given)	inactive: 12.9%	

For convenience, part of the list above:
Compound	activity change, negative = inhibition	Potency
CCCCONc1ncnc2nonc12	inactive: 70.5%	
CNC(=S)N(CCc1c(C)[nH]c2ccc(C)cc12)Cc1cc(OC)c(OC)c(OC)c1		active: 10.4 µM
Cc1nc2ccccc2nc1OCc1ccc([N+](=O)[O-])cc1	inactive: 19.1% [at 1.15 µM]	
CCCC(=O)Oc1cccc(C2NC(=O)c3ccccc3O2)c1 (stereo not given)		inconclusive: 14.7 µM [inhibitor, single point]
O=C(NCCS(=O)(=O)c1ccc(Br)cc1)c1ccc(Cl)cc1Cl	inactive: 21.6%	

More results.

Compound	activity change, negative = inhibition	Potency
COc1ccc(CNC(=O)COC(=O)c2c(NC(C)=O)sc(C)c2C)cc1	inactive: 33.9%	
Fc1cc(F)c2nc(Nc3nc4c(F)cccc4s3)sc2c1		inconclusive: 18.5 µM [inhibitor, single point]
Fc1ccc(C2C3=C(Nc4ncnn42)c2ccccc2OC3c2ccncc2)cc1 (stereo not given)	inactive: 21.2%	
COc1cnc(-c2ccccn2)nc1Oc1ccc(Cl)c2ccccc12		active: 6.57 µM
Cc1c(-c2c(C#N)c(N)nc3c2CCCCCC3)cnn1C		active: 10.4 µM
COc1ccccc1Nc1nnc(SC(C)C(=O)NC2CC2)s1 (stereo not given)		inconclusive: 9.28 µM [inhibitor, partial curve, poor fit]
CC(=O)c1ccc(NC(=O)N2CCN(c3cccc(Cl)c3)CC2)cc1		inconclusive: 18.5 µM [inhibitor, single point]
Cn1c(NC(=O)c2ccccc2C(F)(F)F)cc(=O)n(C)c1=O	inactive: 1.77%	
Cc1cccc(NC(=O)c2nc[nH]c2C(=O)N2CCc3ccccc3C2)c1		inconclusive: 16.5 µM [inhibitor, single point]
CCCN(CCC)[C@@H]1CCc2cccc(O)c2C1		active: 4.15 µM
CCOC(=O)c1c(NC(=O)CC)sc(C(=O)NC2CCCC2)c1C	inactive: -25.7%	
Cc1ccc(S(=O)(=O)N(C)Cc2ccc(C(=O)NN=C3C4CC5CC(C4)CC3C5)cc2)cc1		inconclusive: 8.28 µM [inhibitor, partial curve, poor fit]
COc1ccccc1NS(=O)(=O)c1cc(NC(=O)CCNC(C)=O)ccc1N1CCCCC1		active: 10.4 µM
COc1cccc(NC(=O)/C=C/c2ccccc2[N+](=O)[O-])c1		inconclusive: 0.0041 µM [inhibitor, full curve, poor fit]
CCOC(=O)/C(=C/C=C1\Sc2cc(C)c(C)cc2N1CC)C(C)=O	inactive: 0.82%	
O=C1NC(=S)S/C1=C\c1coc2ccccc2c1=O		inconclusive: 0.928 µM [inhibitor, full curve, poor fit]
CC(=O)NC(Cc1ccc(C)cc1)C(=O)NC1CCN(c2ncccc2[N+](=O)[O-])CC1 (stereo not given)	inactive: -10.4%	
O=C(NCCc1ccccn1)C1CCN(S(=O)(=O)c2ccc(Cl)cc2)CC1		inconclusive: 1.31 µM [inhibitor, partial curve, poor fit]
CCCCC1=CC2=CC(=O)C(C)(OC(=O)CC)C(=O)C2=CN1CCN1CCOCC1 (stereo not given)		inconclusive: 18.5 µM [inhibitor, single point]
CCCCNC(=O)c1ccc(NC(C)=O)c(Cl)c1		inconclusive: 9.28 µM [inhibitor, single point]
COc1ccccc1NC(=O)CSc1nnc(C2CCCCC2)n1N	inactive: 28.1%	
Cc1ccc(C)c(N2CCN(c3ccncc3N)CC2)c1		inconclusive: 8.28 µM [inhibitor, partial curve, poor fit]
CC(Oc1ccc(Br)cc1Br)C(=O)Nc1cccnc1 (stereo not given)		inconclusive: 18.5 µM [inhibitor, single point]
COc1ccccc1NC=C1C(=O)OC(C)(C)OC1=O		inconclusive: 1.47 µM [inhibitor, full curve]
O=C(O)c1cc2ccc3ccccc3c2oc1=O		inconclusive: 2.33 µM [inhibitor, full curve, poor fit]
